For two substances, binding results are on record in publication PMC3551927, “Structural Basis of the γ-Lactone-Ring Formation in Ascorbic Acid Biosynthesis by the Senescence Marker Protein-30/Gluconolactonase” (PLoS ONE, 2013).

The chains behind the UniProt entries cited, without tags or fusion partners.
UniProt Q64374: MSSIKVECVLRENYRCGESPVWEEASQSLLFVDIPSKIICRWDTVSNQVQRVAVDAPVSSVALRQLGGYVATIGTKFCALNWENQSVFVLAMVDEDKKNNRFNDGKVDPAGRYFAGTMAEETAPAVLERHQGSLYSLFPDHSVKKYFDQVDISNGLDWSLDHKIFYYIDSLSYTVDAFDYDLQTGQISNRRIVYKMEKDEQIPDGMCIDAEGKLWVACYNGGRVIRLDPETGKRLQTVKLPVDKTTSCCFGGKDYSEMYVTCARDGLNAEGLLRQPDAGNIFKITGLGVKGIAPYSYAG
UniProt Q15493: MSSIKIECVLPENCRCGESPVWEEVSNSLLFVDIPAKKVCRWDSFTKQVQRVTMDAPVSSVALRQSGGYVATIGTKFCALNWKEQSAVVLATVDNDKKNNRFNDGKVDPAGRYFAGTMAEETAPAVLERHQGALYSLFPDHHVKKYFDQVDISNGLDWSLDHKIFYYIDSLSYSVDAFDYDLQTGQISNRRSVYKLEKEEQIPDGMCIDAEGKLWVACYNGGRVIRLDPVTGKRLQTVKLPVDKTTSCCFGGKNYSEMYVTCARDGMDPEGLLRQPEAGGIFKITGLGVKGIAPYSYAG

Test [1] has as its target mouse senescence marker protein-30/gluconolactonase (SMP30/GNL) (mouse) (UniProt Q64374). The test is described as follows: SEC-MALS; low-angle laser light scattering combined with gel chromatography on a TSKgel SuperSW2000 column; elution buffer 50 mM HEPES pH 7.5, ionic strength 0.15 mol/L, flow rate 0.2 ml/min; standards ribonuclease A, egg albumin monomer, bovine albumin monomer; both purified. Background: SEC sorts molecules by how far they enter the pores of the column.

The target in test [2] is human senescence marker protein-30/gluconolactonase (SMP30/GNL) (human) (UniProt Q15493). The test is described as above.

These are yes or no findings as the source states them, for the method shown.

In the case of “mouse senescence marker protein-30/gluconolactonase (SMP30/GNL) (from UniProt Q64374 1-299) (enzyme)”, the binding entry in test [1] is on record as “no binding”.
For the substance “human senescence marker protein-30/gluconolactonase (SMP30/GNL) (from UniProt Q15493 1-299) (enzyme)”, the binding result in test [2] is “no binding”.
